## Library compounds against nucleic acid targets

From ROBIN, a set of small-molecule microarray screens (doi:10.1002/anie.202211358).

Targets (5′ to 3′):
T1: TPP riboswitch RNA three-way junction, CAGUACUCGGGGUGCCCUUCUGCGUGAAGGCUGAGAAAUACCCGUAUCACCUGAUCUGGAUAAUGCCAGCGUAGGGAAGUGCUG. About 24,000 compounds screened, about 160 hits.
T2: PreQ1 riboswitch RNA pseudoknot, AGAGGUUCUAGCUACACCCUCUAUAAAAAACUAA. From B. subtilis. About 24,000 compounds screened, about 170 hits.
T3: SAM-II riboswitch RNA pseudoknot, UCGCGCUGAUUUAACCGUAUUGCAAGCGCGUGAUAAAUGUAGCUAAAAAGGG. About 21,000 compounds screened, about 200 hits.

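The test is a small-molecule microarray: each compound is printed twice on a reactive slide, and binding shows as fluorescence of the labelled oligonucleotide after washing. The data file lists only calls. An earlier report of the laboratory on the PreQ1, TPP and SAM-II riboswitches (doi:10.1038/s41467-019-09493-3) used 1 µM RNA for 2 h and required a mean Z-score above 3 (spot signal-to-noise against the whole library), a score well above that on a control array, and duplicate spots agreeing (coefficient of variation under 100); it then also set aside compounds that hit other targets, which this list keeps. The cut-offs behind this list may differ. A missing hit is not proof of no binding, and a hit is not a measured affinity.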 Key: Y = hit, N = tested without a hit. This is an unselected part of the compounds tested. A target missing from an entry has no call listed here. A dash means that no call is listed here.

Compound	T1	T2	T3
CC(C)C(NC(=O)C1(N2CCCC2)CCCCC1)c1nnc2n1CCNCC2 (centres unmarked)	N	N	N
COCc1[nH]nc2c1C(c1cccc(Br)c1)C(C#N)=C(N)O2 (centres unmarked)	N	N	N
CC(=O)N[C@@H]1CN(C(=O)c2sccc2N)C[C@H]1c1ccc(C)cc1	N	N	N
COc1cccc(-c2cc(C(=O)N3CCC4(CCCNC4)C3)[nH]n2)c1 (centres unmarked)	N	N	N
Cc1cc(C)c(Cn2c(CO)nc3ccccc32)c(C)c1	N	N	-
CCOC(=O)c1cnc(SCc2cccc(F)c2)nc1N	N	N	-
COc1ccc(OCC2CCCN(C(=O)c3ccc(N)nc3)C2)cc1 (centres unmarked)	N	N	N
O=C(CO)Nc1cccc(NC(=O)CO)n1	N	N	N
CCOC(=O)N1C/C(=C\c2ccccc2)C(=O)/C(=C/c2ccccc2)C1	N	N	N
CN(C(=O)c1ccc(N)cc1)C1CC(C)(C)N(C)C(C)(C)C1	N	N	N
CCCC(O)c1nc2ccccc2n1Cc1ccccc1OC (centres unmarked)	N	N	-
Cc1cc(NCCN2CCOCC2)n2nc(-c3ccc(Cl)cc3)c(C)c2n1	N	N	-
Cc1ncc(C#N)c(N)n1	N	N	N
C#Cc1cccc(Nc2ncnc3cc(OC)c(OCCCCCCC(=O)NO)cc23)c1	N	N	N
O=C(O)c1ccccc1NC1SC(=O)N(c2ccccc2)C1=O (centres unmarked)	N	N	N
CC(=O)C1=C(C)OC(N)=C(C#N)C1c1ccc(Cl)cc1 (centres unmarked)	N	N	N
COc1ccc(C2C(C#N)=C(N)Oc3c2ccc(=O)c2c(C)oc(C)c32)cc1 (centres unmarked)	N	N	N
COc1ccc(S(=O)(=O)N2CCC(NC(=O)NCCCO)CC2)cc1	N	N	-
N#Cc1c(-c2cccnc2)cc(-c2ccc(N3CCCCC3)cc2)nc1N	N	N	N
CCc1nccc(CN2CC[C@@H](c3cccc(OC)c3)[C@H](O)C2)n1	N	N	N
CCC(CO)N(Cc1cccnc1)Cc1ccccn1 (centres unmarked)	N	N	N
O=C1CC(Nc2ccc(N3CCOCC3)cc2)C(=O)N1c1ccc(Cl)c(C(F)(F)F)c1 (centres unmarked)	N	N	N
O=C(NCCN1CCNCC1)c1cccc2cccnc12	N	N	N
CCCc1nc2nc(C)cc(Nc3ccc(F)cc3)n2n1	N	N	N
CS(=O)(=O)n1nc(OC(=O)c2cccc3ccccc23)cc1N	N	N	N
Cc1nc(C#N)c(NCc2ccc3c(c2)OCO3)o1	N	N	N
CCc1[nH]nc2c1C(c1cc(OC)c3c(c1)OCO3)C(C#N)=C(N)O2 (centres unmarked)	N	Y	N
Cc1cccc(Nc2nc3ccccc3c3nncn23)c1	N	N	N
CCN(Cc1noc(C2CCC2)n1)C(=O)CCc1cc2n(n1)CCNC2	N	N	N
COc1ccc(CNc2nc(-c3ccc(C)cc3)cc(C(F)F)n2)cc1	N	N	N
C[C@@H]1CN(C[C@@H]2CN(C(=O)CSc3ccccn3)C[C@@H]2CO)C[C@H](C)O1	N	N	N
CCc1ccc(Cn2cc(CCN)nn2)cc1	N	N	N
Cn1nc(CO)c2c1CCN(Cc1cc3n(n1)CCCN(c1ncccn1)C3)C2	N	N	N
CC1(C)N=C(N)N=C(NCCCOc2ccc([N+](=O)[O-])cc2)N1.CCS(=O)(=O)O	N	N	N
CNC(=O)[C@@H]1C[C@H](N)CN1C(=O)c1cc(C)sc1NC(=O)C(C)(C)C	N	N	N
NC(=O)c1noc(CN2CCN(Cc3ccccc3)C(CCO)C2)n1 (centres unmarked)	N	N	N
Cc1ccc(C(C(=O)NCCCCCN)N(C)C)cc1 (centres unmarked)	N	N	N
Nc1snc2ccccc12	N	N	N
O=C1c2cccc3c(N4CCOCC4)ccc(c23)C(=O)N1CCO	N	N	N
Cc1ccc(S(=O)(=O)NC2CCCCC2Nc2cc(C)ccc2C)cc1 (centres unmarked)	N	N	-
O=C(CCc1n[nH]c2c1CCCC2)N1Cc2ccccc2C(O)C1 (centres unmarked)	N	N	N
Cc1cc(C)n2nc(N)nc2n1	N	N	N
CC1(C)Nc2ccccc2C(=O)N1c1cccc(C(F)(F)F)c1	N	N	N
O=S1(=O)C[C@H](NCc2ccc(F)cc2)[C@@H](S(=O)(=O)c2ccc(Cl)cc2)C1	N	N	-
CCOC(=O)N1CCN(c2c(NCc3ccc(F)cc3)c(=O)c2=O)CC1	N	N	-
O=C1c2ccccc2C(=O)N1OCC(O)COc1ccc([N+](=O)[O-])cc1 (centres unmarked)	N	N	N
C=CC1Oc2ccc([N+](=O)[O-])cc2NC12C=C(C(C)(C)C)C(=O)C(C(C)(C)C)=C2 (centres unmarked)	N	N	N
COc1cccc(-c2cc(C(=O)N3CC=CC3CO)[nH]n2)c1 (centres unmarked)	N	N	N
CC(C)=CCN1C[C@H]2CC[C@@H]1CN(C(=O)c1ccc(N(C)CCO)cc1)C2	N	N	N
Cc1c(-c2ccccc2)ncn1CCCNc1cccnc1	N	N	N
CSCC[C@H](NC(=O)[C@H](Cc1c[nH]c2ccccc12)NC(=O)CCNC(=O)OC(C)(C)C)C(=O)N[C@@H](CC(=O)O)C(=O)N[C@@H](Cc1ccccc1)C(N)=O	N	N	N
CN(Cc1cc(Br)cc(Br)c1N)C1CCCCC1	N	N	N
CCN1c2ccccc2C2=C(C(c3cc(Br)ccc3F)C(C#N)=C(N)O2)S1(=O)=O (centres unmarked)	N	N	-
Cc1cc(NCCN2CCOCC2)n2nc(-c3cccc(Cl)c3)c(C)c2n1	N	N	-
Cn1cc(CN2C(=O)NC(Cc3ccc(F)cc3)(C3CCNCC3)C2=O)cn1 (centres unmarked)	N	N	N
Cn1c(SCc2ccccn2)nc2c1c(=O)[nH]c(=O)n2C	N	N	N
CCOc1ccc(C2C(C#N)=C(N)Oc3cc4c(cc32)OCO4)cc1OC (centres unmarked)	N	N	N
Clc1nc(NCCc2ccccc2)c2cn[nH]c2n1	N	N	N
Cc1ccc(C(=O)c2sc3nc4c(cc3c2N)C(=O)CC(C)(C)C4)cc1	N	N	N
COc1ccc2c(c1)cc(C(=O)NCCN1CCCCC1CO)n2C (centres unmarked)	N	N	N
CCOc1ccc2ccccc2c1CNCCNC(=O)c1nonc1N	N	N	-
Cc1ccccc1NC(=O)N1CCN(C(=O)C2NCCc3[nH]cnc32)CC1 (centres unmarked)	N	N	N
Cc1cc(C)c(C#N)c(Nc2ccc(F)cc2)n1	N	N	N
Cc1cccc(-c2noc(CN(C)C(=O)C3NCCc4[nH]cnc43)n2)c1 (centres unmarked)	N	N	N
CC(C)c1cc(Nc2ccc(F)c(F)c2)n2nc(-c3cccnc3)nc2n1	N	N	-
CCN(Cc1cccc(C(=O)Nc2ncccc2C)c1)[C@@H]1CCCC[C@H]1O	N	N	N
COC(=O)CNc1cc(C)nc2nc(-c3ccc(Cl)cc3)nn12	N	N	-
Brc1ccc(CNCCc2c[nH]c3ccccc23)cc1	N	N	N
Cc1ccccc1Cn1c(CCCO)nc2ccccc21	N	N	N
CCSc1nsc(N)n1	N	N	N
N#Cc1cnn2c(NC3CCCCC3)c(-c3cccc(Cl)c3)[nH]c12	N	N	-
CC(Cc1ccccc1)NC1=NS(=O)(=O)c2ccccc21 (centres unmarked)	N	N	N
Nc1ccc2c(c1)nc(CO)n2CCO	N	N	N
c1ccc(Cn2nc(Cn3cncn3)nc2[C@H]2Cc3ccccc3CN2)cc1	N	N	N
Cc1cc(Nc2ccc(Cl)c(C(F)(F)F)c2)n2nc(C)nc2n1	N	N	N
Cl.Cl.OC(COCc1ccccc1)CN1CCN(Cc2ccc3c(c2)OCO3)CC1 (centres unmarked)	N	N	N
COc1ccc(C(=O)c2sc3nc(C)cc(-c4cccs4)c3c2N)cc1	N	N	N

Some entries from above, unchanged:

{"compound": "CS(=O)(=O)n1nc(OC(=O)c2cccc3ccccc23)cc1N", "T1": "N", "T2": "N", "T3": "N"}
{"compound": "Cc1cccc(Nc2nc3ccccc3c3nncn23)c1", "T1": "N", "T2": "N", "T3": "N"}
{"compound": "C[C@@H]1CN(C[C@@H]2CN(C(=O)CSc3ccccn3)C[C@@H]2CO)C[C@H](C)O1", "T1": "N", "T2": "N", "T3": "N"}
{"compound": "Cc1ccccc1NC(=O)N1CCN(C(=O)C2NCCc3[nH]cnc32)CC1", "stereo": "centres unmarked", "T1": "N", "T2": "N", "T3": "N"}
{"compound": "CC(C)c1cc(Nc2ccc(F)c(F)c2)n2nc(-c3cccnc3)nc2n1", "T1": "N", "T2": "N"}
{"compound": "N#Cc1c(-c2cccnc2)cc(-c2ccc(N3CCCCC3)cc2)nc1N", "T1": "N", "T2": "N", "T3": "N"}
{"compound": "CCC(CO)N(Cc1cccnc1)Cc1ccccn1", "stereo": "centres unmarked", "T1": "N", "T2": "N", "T3": "N"}
{"compound": "O=C(CCc1n[nH]c2c1CCCC2)N1Cc2ccccc2C(O)C1", "stereo": "centres unmarked", "T1": "N", "T2": "N", "T3": "N"}